Measured values from the supplement of paper PMC12067093, “Discovery and optimisation of a covalent ligand for TRIM25 and its application to targeted protein ubiquitination” (Chemical Science, 2025).
This is one part of the list.

By UniProt entry, the sequences of proteins in these tests, tags left out. Where a name states a change or a piece, a line headed by the entry shows the natural chain unless it says otherwise.
UniProt Q9BS26: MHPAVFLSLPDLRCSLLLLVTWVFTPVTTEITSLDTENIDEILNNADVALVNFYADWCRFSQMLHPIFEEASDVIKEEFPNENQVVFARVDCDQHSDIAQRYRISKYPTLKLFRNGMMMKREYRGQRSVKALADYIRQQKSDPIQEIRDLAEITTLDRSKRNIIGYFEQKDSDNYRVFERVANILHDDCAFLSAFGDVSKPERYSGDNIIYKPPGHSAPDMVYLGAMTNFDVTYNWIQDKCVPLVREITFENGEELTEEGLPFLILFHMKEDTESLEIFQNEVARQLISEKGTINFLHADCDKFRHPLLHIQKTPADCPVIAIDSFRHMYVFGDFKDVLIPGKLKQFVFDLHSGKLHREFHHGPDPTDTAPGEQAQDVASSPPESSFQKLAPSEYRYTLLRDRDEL
UniProt Q5T8I3: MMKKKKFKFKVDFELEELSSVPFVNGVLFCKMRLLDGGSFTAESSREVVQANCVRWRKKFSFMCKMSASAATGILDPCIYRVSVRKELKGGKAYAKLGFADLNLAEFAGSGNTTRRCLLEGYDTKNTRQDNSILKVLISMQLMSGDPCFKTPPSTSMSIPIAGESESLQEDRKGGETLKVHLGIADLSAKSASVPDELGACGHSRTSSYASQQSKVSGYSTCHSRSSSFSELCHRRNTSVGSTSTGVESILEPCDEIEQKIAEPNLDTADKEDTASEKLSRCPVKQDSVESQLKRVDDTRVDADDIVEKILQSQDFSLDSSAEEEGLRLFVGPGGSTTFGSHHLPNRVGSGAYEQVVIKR
UniProt P13804: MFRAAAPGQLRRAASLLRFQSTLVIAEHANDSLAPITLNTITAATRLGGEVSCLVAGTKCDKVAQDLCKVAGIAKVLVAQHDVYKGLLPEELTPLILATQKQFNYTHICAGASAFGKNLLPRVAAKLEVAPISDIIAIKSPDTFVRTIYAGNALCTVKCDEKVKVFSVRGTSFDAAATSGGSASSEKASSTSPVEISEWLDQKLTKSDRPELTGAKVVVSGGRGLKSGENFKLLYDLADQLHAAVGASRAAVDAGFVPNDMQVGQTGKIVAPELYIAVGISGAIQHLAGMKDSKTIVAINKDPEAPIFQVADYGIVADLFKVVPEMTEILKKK
UniProt Q96CN4: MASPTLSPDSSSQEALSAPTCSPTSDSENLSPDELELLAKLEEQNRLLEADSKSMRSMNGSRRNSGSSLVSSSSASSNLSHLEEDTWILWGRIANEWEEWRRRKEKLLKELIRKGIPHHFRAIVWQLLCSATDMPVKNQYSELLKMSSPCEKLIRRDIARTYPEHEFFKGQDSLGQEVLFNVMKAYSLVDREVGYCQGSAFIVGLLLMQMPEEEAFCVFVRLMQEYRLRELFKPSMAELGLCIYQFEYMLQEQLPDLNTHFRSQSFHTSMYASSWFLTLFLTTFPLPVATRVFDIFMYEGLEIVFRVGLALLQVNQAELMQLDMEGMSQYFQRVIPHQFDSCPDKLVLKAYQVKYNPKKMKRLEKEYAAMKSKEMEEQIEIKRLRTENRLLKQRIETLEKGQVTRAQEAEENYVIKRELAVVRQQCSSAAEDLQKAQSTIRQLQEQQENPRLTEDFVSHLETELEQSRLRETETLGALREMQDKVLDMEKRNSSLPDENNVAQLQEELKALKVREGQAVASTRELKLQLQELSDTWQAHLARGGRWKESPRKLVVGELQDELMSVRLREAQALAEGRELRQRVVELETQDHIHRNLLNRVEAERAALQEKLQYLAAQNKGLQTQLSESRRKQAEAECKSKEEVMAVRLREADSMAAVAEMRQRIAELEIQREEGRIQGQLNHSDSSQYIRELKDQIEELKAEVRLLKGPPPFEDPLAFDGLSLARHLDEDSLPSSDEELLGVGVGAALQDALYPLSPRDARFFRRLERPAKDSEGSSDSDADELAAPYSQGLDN
UniProt Q9BSJ8: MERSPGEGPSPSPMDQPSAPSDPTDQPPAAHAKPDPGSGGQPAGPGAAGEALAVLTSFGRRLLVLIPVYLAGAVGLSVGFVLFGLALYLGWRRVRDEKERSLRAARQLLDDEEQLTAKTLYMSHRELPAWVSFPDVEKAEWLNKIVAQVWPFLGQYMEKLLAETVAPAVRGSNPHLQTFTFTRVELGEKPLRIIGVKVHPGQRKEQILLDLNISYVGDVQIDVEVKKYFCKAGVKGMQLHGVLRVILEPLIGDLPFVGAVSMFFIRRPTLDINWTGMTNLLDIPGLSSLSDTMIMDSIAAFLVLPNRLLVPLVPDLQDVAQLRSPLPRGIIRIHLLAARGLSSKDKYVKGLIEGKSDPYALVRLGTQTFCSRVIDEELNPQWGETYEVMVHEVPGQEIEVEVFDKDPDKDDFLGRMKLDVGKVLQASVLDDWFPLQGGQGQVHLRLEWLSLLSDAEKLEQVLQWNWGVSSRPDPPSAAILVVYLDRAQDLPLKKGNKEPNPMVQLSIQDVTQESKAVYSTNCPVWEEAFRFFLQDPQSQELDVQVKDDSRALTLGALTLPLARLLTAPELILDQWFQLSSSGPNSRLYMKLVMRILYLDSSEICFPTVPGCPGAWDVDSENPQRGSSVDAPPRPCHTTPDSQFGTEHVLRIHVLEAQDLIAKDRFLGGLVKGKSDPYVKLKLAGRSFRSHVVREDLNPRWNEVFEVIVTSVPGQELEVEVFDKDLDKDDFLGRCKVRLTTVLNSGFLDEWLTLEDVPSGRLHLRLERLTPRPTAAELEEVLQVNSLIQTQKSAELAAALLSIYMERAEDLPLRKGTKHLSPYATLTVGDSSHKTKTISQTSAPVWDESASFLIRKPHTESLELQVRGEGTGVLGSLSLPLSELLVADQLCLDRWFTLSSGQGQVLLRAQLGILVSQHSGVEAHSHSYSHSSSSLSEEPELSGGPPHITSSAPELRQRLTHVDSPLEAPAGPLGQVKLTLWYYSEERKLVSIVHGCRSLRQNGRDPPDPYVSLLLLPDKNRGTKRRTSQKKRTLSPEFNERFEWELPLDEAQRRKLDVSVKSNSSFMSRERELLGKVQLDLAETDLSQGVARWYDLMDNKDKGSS
UniProt O00471: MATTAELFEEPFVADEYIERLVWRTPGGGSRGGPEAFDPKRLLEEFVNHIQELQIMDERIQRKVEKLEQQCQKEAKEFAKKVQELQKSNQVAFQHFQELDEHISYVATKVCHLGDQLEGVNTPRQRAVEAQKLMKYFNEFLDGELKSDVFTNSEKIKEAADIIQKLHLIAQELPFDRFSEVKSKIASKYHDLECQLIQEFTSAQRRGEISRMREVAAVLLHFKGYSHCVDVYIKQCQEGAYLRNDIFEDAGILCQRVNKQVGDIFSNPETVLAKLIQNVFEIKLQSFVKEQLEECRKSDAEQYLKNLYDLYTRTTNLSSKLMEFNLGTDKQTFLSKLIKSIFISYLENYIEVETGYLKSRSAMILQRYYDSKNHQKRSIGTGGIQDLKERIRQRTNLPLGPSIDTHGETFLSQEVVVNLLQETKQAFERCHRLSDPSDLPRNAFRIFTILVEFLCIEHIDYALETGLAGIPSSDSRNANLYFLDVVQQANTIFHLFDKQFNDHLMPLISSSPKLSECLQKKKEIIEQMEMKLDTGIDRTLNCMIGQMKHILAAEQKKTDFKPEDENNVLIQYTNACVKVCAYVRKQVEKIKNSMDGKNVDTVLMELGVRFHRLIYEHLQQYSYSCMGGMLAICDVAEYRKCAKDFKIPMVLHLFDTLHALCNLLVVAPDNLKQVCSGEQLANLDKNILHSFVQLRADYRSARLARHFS
UniProt P07992: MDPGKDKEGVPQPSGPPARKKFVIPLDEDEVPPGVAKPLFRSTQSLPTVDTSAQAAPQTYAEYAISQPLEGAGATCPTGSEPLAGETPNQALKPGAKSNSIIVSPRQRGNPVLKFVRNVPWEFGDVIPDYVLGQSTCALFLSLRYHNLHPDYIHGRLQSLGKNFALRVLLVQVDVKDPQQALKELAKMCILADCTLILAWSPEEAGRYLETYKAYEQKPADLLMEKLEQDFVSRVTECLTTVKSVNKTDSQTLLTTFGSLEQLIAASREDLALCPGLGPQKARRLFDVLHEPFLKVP
UniProt Q06265, whole entry, looked up: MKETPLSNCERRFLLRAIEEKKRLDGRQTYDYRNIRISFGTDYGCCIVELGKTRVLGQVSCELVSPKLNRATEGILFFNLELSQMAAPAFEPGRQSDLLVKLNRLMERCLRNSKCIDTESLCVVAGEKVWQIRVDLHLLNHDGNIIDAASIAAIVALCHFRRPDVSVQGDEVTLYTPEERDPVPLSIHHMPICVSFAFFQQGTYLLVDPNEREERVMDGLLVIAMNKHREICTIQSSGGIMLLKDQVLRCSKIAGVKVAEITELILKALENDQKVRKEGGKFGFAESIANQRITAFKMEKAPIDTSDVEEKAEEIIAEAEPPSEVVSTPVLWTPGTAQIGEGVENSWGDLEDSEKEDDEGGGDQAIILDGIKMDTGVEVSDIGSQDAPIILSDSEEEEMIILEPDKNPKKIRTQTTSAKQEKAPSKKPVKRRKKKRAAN
UniProt Q96B26, whole entry, looked up: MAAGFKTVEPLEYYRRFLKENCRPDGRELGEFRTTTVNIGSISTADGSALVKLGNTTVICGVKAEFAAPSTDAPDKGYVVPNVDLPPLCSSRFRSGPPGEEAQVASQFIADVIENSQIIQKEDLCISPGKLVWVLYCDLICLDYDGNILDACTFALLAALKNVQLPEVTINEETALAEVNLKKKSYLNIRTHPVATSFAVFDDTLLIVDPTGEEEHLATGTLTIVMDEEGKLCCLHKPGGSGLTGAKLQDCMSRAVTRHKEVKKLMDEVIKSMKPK
UniProt Q9BPY3: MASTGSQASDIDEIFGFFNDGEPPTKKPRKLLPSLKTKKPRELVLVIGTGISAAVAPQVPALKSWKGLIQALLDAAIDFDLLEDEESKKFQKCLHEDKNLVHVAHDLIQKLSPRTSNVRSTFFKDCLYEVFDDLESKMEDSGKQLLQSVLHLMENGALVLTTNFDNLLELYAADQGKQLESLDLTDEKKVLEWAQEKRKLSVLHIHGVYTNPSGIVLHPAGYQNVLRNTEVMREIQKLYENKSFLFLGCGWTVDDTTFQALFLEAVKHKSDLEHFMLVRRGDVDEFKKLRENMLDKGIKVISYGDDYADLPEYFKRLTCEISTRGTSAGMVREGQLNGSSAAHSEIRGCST
UniProt Q9BYI3: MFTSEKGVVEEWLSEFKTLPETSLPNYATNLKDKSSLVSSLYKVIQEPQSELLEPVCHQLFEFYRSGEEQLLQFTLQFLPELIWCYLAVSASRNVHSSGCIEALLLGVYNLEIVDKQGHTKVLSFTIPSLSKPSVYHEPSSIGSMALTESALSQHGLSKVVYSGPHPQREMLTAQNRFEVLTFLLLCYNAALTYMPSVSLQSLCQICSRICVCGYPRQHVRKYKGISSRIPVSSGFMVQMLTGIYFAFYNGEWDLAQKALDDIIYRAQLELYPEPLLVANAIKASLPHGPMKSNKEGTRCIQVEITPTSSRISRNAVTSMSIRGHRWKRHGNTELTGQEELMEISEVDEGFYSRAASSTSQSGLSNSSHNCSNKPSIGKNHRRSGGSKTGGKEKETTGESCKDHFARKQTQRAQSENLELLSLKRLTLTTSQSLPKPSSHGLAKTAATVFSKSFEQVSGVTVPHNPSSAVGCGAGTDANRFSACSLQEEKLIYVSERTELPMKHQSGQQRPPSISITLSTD
UniProt Q96A65: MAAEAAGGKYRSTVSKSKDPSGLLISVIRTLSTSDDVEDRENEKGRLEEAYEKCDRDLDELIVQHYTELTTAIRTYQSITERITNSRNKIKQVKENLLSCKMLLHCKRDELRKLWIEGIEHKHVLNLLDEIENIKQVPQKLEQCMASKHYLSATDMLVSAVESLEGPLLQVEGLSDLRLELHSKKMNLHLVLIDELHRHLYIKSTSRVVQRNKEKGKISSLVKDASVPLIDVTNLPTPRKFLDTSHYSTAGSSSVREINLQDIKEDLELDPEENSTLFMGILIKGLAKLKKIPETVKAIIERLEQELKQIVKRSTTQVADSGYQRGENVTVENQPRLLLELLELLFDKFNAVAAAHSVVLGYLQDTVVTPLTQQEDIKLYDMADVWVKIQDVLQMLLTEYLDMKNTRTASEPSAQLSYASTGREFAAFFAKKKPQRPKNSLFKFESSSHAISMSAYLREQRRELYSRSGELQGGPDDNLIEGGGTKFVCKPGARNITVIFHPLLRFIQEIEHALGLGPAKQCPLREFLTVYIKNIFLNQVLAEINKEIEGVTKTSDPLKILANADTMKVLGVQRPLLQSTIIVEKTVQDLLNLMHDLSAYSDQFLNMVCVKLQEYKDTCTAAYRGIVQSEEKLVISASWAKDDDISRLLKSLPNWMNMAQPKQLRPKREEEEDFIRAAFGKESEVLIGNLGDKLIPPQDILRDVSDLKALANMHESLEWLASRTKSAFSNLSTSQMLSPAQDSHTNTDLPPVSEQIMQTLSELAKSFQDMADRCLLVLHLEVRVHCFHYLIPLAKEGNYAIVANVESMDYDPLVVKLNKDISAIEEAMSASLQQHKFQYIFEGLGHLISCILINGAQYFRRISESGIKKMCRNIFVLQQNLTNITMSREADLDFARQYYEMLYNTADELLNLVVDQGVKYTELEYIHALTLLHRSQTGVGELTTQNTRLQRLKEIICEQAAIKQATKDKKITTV

Compound: CC1Cc2ccccc2N1C(=O)C1CCCN(C1)C(=O)CCl (mixture of isomers) [TRIM25 ligand 11 (diastereomer mixture)]
Test: probe-labelled cysteine peptide fold change vs DMSO (competition) (log2 fold change); higher = less target engagement (more negative = stronger competition)
Conditions: THP-1, incubation time: 4 h
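Note: competitive chemoproteomic profiling in live THP-1 cells with an iodoacetamide desthiobiotin (IA-DTB) probe, comparing probe-labelled peptide intensities in compound-treated cells against DMSO-treated controls.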

Row | Target | probe-labelled cysteine peptide fold change (10 µM) | probe-labelled cysteine peptide fold change (50 µM)
1 | ERP44_Q9BS26_301_GTINFLHADCDK (UniProt Q9BS26) | 0.0266 | 0.00902
2 | FAM102B_Q5T8I3_254_NTSVGSTSTGVESILEPCDEIEQK (UniProt Q5T8I3) | 0.0722 | -0.0455
3 | ETHE1_O95571_170_TDFQQGCAK (UniProt O95571) | -0.0879 | -0.135
4 | ETFA_P13804_109_QFNYTHICAGASAFGK (UniProt P13804) | -0.113 | -0.0426
5 | EVI5L_Q96CN4_342_VIPHQFDSCPDK (UniProt Q96CN4) | -0.246 | -0.197
6 | FAAP100_Q0VG06_309_TEPQAAEAAENFLPDEDVHCDCLVAFGHHGR (UniProt Q0VG06) | -0.157 | 0.0565
7 | EXOC6_Q8TAG9_28_ILQEIESTDTACVGPTLR (UniProt Q8TAG9) | -0.0571 | -0.0118
8 | ERCC4_Q92889_560_EPLTIIHPLLGCSDPYALTR (UniProt Q92889) | 0.0503 | -0.316
9 | ERLEC1_Q96DZ1_113_QSSCSYR (UniProt Q96DZ1) | 0.0884 | 0.179
10 | ESYT1_Q9BSJ8_995_LVSIVHGCR (UniProt Q9BSJ8) | 0.00116 | 0.0422
11 | EZH2_Q15910_580_ECDPDLCLTCGAADHWDSK (UniProt Q15910) | -0.0517 | 0.0155
12 | EXOC5_O00471_542_TLNCMIGQMK (UniProt O00471) | -0.0133 | -0.012
13 | ERCC1_P07992_274_EDLALCPGLGPQK (UniProt P07992) | 0.0528 | 0.107
14 | ETF1_P62495_335_YVLHCQGTEEEK (UniProt P62495) | 0.181 | 0.139
15 | EXOSC9_Q06265_9_MKETPLSNCER (UniProt Q06265) | -0.282 | -0.321
16 | FAM111A_Q96PZ2_181_ASTECVK (UniProt Q96PZ2) | -0.186 | -0.00255
17 | FAM120B_Q96EK7_416_QEVPMCTGPEAR (UniProt Q96EK7) | -0.0148 | -0.163
18 | ERGIC3_Q9Y282_145_HELGKVEVTVFDPDSLDPDRCESCYGAEAEDIK (UniProt Q9Y282) | -0.245 | 0.0788

Record cards (already shown):
EVI5L_Q96CN4_342_VIPHQFDSCPDK (UniProt Q96CN4) is listed as probe-labelled cysteine peptide fold change (10 µM) = -0.246; probe-labelled cysteine peptide fold change (50 µM) = -0.197
ERCC1_P07992_274_EDLALCPGLGPQK (UniProt P07992) is listed as probe-labelled cysteine peptide fold change (10 µM) = 0.0528; probe-labelled cysteine peptide fold change (50 µM) = 0.107
ESYT1_Q9BSJ8_995_LVSIVHGCR (UniProt Q9BSJ8) is listed as probe-labelled cysteine peptide fold change (10 µM) = 0.00116; probe-labelled cysteine peptide fold change (50 µM) = 0.0422

Additional records follow:

Row | Target | probe-labelled cysteine peptide fold change (10 µM) | probe-labelled cysteine peptide fold change (50 µM)
19 | EXOSC8_Q96B26_234_LCCLHKPGGSGLTGAK (UniProt Q96B26) | -0.103 | -0.157
20 | EXOSC8_Q96B26_89_GYVVPNVDLPPLCSSR (UniProt Q96B26) | -0.12 | -0.16
21 | EZR_P15311_284_ILQLCMGNHELYMRR (UniProt P15311) | -0.0493 | 0.346
22 | FAM118B_Q9BPY3_126_DCLYEVFDDLESK (UniProt Q9BPY3) | -0.178 | -0.251
23 | ESD_P10768_56_CPALYWLSGLTCTEQNFISK (UniProt P10768) | 0.134 | 0.228
24 | ERCC6L_Q2NKX8_1222_IQEALNCLVK (UniProt Q2NKX8) | 0.044 | -0.208
25 | ETFA_P13804_68_VAQDLCK (UniProt P13804) | 0.0134 | 0.0575
26 | EXOC5_O00471_194_YHDLECQLIQEFTSAQR (UniProt O00471) | 0.139 | 0.157
27 | FAM102B_Q5T8I3_201_SASVPDELGACGHSR (UniProt Q5T8I3) | 0.157 | -0.0565
28 | ETNK1_Q9HBU6_307+313_EILSNLGSPVVLCHNDLLCK (UniProt Q9HBU6) | -0.0363 | -0.124
29 | ERI1_Q8IV48_243_FLNIQCQLSR (UniProt Q8IV48) | 0.0207 | 0.0892
30 | FAM126A_Q9BYI3_371_AASSTSQSGLSNSSHNCSNKPSIGK (UniProt Q9BYI3) | 0.161 | -0.226
31 | ERMP1_Q7Z2K6_737_AHCEENAPLCGFPWYLPVHFLIR (UniProt Q7Z2K6) | -0.0364 | 0.0032
32 | EXOC4_Q96A65_54_CDRDLDELIVQHYTELTTAIR (UniProt Q96A65) | 0.011 | -0.155
33 | ETFDH_Q16134_387_LTFPGGLLIGCSPGFMNVPK (UniProt Q16134) | -0.688 | -0.698
34 | FAM111B_Q6SJ93_212_LCIYALK (UniProt Q6SJ93) | -0.05 | -0.0141
35 | ESYT2_A0FGR8_181_ACDLPAWVHFPDTERAEWLNK (UniProt A0FGR8) | -0.246 | -0.0526
36 | FAM126A_Q9BYI3_300_CIQVEITPTSSR (UniProt Q9BYI3) | 0.0316 | 0.0159
